Reference: PubChem BioAssay AID686938 (Drosophila RNAi Screening Center, 2013)
The deposit covers about 23,000 reagents; shown is a random part of those that have a named target and a result. In the full data, 75 (0.33%) are marked active. 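Raw plate signals without normalisation; calls rest on plate z-scores that were not deposited; ratio present for only 364 wells.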 A number with no mark means an inactive call. A plus sign joins genes that one reagent is predicted to hit. No sequences are given here. Not given: the dose of the treatment.

- Purpose: 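Knock-downs reducing store-operated calcium influx in Drosophila cells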 (primary screen)
- System: Drosophila S2R+ cells
- Knock-down reagent: long dsRNA against Drosophila genes, about 0.25 µg dsRNA per well, roughly 10,000 cells
- Timing: 5 days of knock-down before the calcium assay
- Treatment: thapsigargin (SERCA pump blocker) to empty calcium stores; entry signal taken 4 min after adding it
- Measurement: 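Duplicate raw fluo-4 intensities per well from a plate reader, at rest and four minutes after thapsigargin emptied calcium stores; entry-to-rest ratio filled for only some wells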
- Direction: calcium entry signal: higher = stronger calcium signal after store depletion; entry to resting ratio: higher = more calcium entry relative to resting level; resting calcium signal: higher = higher resting calcium signal
- Active means: 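Called when the plate z-score of the entry-to-rest ratio, mean of duplicates, falls below −3; wells with low overall dye signal (Fmax z below −2) or more than five off-targets excluded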
- Meaning of the calls: active = strongly reduced calcium entry; inactive = no strong reduction

| predicted target | dsRNA | calcium entry signal, replicate 1 (fluorescence units) | calcium entry signal, replicate 2 (fluorescence units) | entry to resting ratio | resting calcium signal, replicate 1 (fluorescence units) | resting calcium signal, replicate 2 (fluorescence units) |
| --- | --- | --- | --- | --- | --- | --- |
| Gar1 | DRSC04441 | 2.13e7 | 2.77e7 | – | 1.29e7 | 1.46e7 |
| Herp | DRSC02394 | 4.40e7 | – | – | 2.12e7 | – |
| CG7631 | DRSC01873 | 5.13e7 | 3.43e7 | – | 2.16e7 | 1.61e7 |
| MAPk-Ak2 | DRSC18678 | 3.36e7 | 4.18e7 | – | 1.49e7 | 1.83e7 |
| Ing3 | DRSC20002 | 3.29e7 | 4.38e7 | – | 1.94e7 | 2.24e7 |
| Jon66Cii | DRSC10778 | 2.32e7 | 3.26e7 | – | 1.16e7 | 1.45e7 |
| Ugt36A1 + CG15418 | DRSC00432 | 4.29e7 | 3.12e7 | – | 1.86e7 | 1.44e7 |
| CG16710 | DRSC15136 | 3.50e7 | 1.19e7 | – | 1.60e7 | 6.39e6 |
| CG14419 | DRSC17916 | 6.64e7 | 5.80e7 | 2.2 | 3.01e7 | 2.30e7 |

The list goes on; the last 2 above are carried over.
| predicted target | dsRNA | calcium entry signal, replicate 1 (fluorescence units) | calcium entry signal, replicate 2 (fluorescence units) | entry to resting ratio | resting calcium signal, replicate 1 (fluorescence units) | resting calcium signal, replicate 2 (fluorescence units) |
| --- | --- | --- | --- | --- | --- | --- |
| CG16710 | DRSC15136 | 3.50e7 | 1.19e7 | – | 1.60e7 | 6.39e6 |
| CG14419 | DRSC17916 | 6.64e7 | 5.80e7 | 2.2 | 3.01e7 | 2.30e7 |
| hbs | DRSC07627 | 3.57e7 | 5.47e7 | – | 1.83e7 | 2.37e7 |
| CG31373 | DRSC16052 | 3.86e7 | 2.98e7 | – | 1.82e7 | 1.65e7 |
| sll | DRSC16271 | 3.78e7 | 3.93e7 | – | 1.69e7 | 1.69e7 |
| LKRSDH | DRSC03015 | 4.19e7 | – | – | 2.22e7 | – |
| Tmem131 | DRSC07154 | 3.33e7 | 2.49e7 | – | 1.51e7 | 1.29e7 |
| CG5646 | DRSC15853 | 4.63e7 | 5.43e7 | – | 2.15e7 | 2.48e7 |
| Spf45 | DRSC03826 | 5.13e7 | 5.64e7 | – | 2.53e7 | 2.44e7 |
| Polr1F | DRSC02278 | 2.79e7 (active) | – | – | 1.19e7 | – |
| Cox10 | DRSC02804 | 5.05e7 | – | – | 2.56e7 | – |
| scat | DRSC02722 | 4.74e7 | – | – | 2.23e7 | – |
| CG17380 | DRSC15230 | 3.46e7 | 4.78e7 | – | 1.87e7 | 1.92e7 |
| CG8298 | DRSC07138 | 3.39e7 | 3.56e7 | – | 1.75e7 | 1.62e7 |
| CG42816 | DRSC11230 | 4.56e7 | 6.68e7 | – | 2.33e7 | 2.71e7 |
| Npl4 | DRSC15615 | 2.93e7 | 4.30e7 | – | 1.44e7 | 2.10e7 |
| Npl4 | DRSC15616 | 2.60e7 | 2.03e7 | – | 1.40e7 | 1.15e7 |
